These are yes or no findings as the source states them, for the method shown. Binding seen in cells or lysates may run through a third protein. A yes stands for co-enrichment or nearness to the bait. Other partners may have been found. For some assays here: Where a sequence is shown, tags or fusion partners need not be part of it. Each block holds one molecule with its values, some of them ahead of it.
Legend:
PARG-1::GFP (C. elegans) = biological target: T1, PARG-1::GFP (C. elegans) (UniProt Q867X0); assay: affinity purification with mass spectrometry; IP/MS targeting PARG-1::GFP; details in SI Appendix, Fig. S9
T1 sequence: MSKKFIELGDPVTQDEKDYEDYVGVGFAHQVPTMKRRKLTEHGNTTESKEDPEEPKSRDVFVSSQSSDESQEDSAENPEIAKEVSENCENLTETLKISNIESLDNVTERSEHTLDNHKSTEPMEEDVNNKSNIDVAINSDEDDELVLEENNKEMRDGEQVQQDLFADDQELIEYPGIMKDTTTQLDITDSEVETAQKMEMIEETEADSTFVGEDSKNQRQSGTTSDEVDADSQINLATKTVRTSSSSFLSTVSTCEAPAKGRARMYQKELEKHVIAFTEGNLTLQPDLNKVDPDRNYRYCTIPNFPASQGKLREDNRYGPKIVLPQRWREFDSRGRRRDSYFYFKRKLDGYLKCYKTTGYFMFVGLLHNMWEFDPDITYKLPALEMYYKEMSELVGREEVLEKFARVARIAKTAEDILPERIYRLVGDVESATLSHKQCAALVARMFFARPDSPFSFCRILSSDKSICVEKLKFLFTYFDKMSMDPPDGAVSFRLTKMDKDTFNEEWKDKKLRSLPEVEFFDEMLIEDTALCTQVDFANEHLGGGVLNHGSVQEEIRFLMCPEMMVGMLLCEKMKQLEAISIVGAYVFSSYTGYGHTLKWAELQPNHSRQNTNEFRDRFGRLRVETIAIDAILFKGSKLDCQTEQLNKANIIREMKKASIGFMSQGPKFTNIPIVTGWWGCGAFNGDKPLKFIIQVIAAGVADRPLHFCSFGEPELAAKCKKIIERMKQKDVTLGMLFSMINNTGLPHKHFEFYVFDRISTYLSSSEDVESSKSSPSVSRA

DUO-1::GFP (C. elegans) = DUO-1::GFP (C. elegans) (UniProt Q7JLI8); assay: proximity labelling; GFP nanobody::NLS::TurboID expressed in the germ line, coupled to DUO-1::GFP; biotinylated proteins captured on streptavidin-coated beads and identified by LC-MS/MS; controls duo-1::GFP only and GFPnanobody::NLS::TurboID only; three replicates per condition

binding (PARG-1::GFP (C. elegans)): binds
Molecule: DUO-1 (C. elegans (endogenous in worms)) (enzyme)

binding (DUO-1::GFP (C. elegans)): binds
B1: Poly(ADP-ribose) Glycohydrolase 1 (PARG-1) (enzyme, UniProt Q867X0 1-781)
chain: T1 sequence

— article PMC13012089
